PubChem BioAssay AID2685 (National Center for Advancing Translational Sciences (NCATS), 2010)
Some of the results follow. Shown are side measurements of this screen, not its main read-out; they come without a call. The list favours compounds with an active or inconclusive main result. Potencies come from curve fits of mixed quality, noted in brackets.

Assay: qHTS Assay for Lipid Storage Modulators in Drosophila S3 Cells;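 for cell number change: cells counted by Cell Tracker Red CMTPX staining in the red channel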
Details: BODIPY lipid droplet fluorescence, 18-24 h; for cell number change: measured here: cell count max response, cells fed with added oleic acid
Outline: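 Drosophila S3 cells got compounds at several concentrations plus oleic acid (400 uM solution). Laser-scanning cytometry with 488 nm excitation read lipid droplets at 500-530 nm and cells at 575-640 nm. Percent activity was relative to 20 uM Triacsin C.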

[1] = measured here: cell number channel AC50, cells fed with added oleic acid
[2] = measured here: lipid fluorescence (Fed channel) AC50, cells fed with added oleic acid

## CCNC(=O)CN(c1ccccc1OC)S(=O)(=O)c1cccs1
  cell number change: 64.3%
[1]
  AC50: 14.6 µM [rising, partial curve]
[2]
  AC50: 18.4 µM [rising, partial curve]

## COc1ccc(C2=NOC(Cn3nc(C(=O)NCc4cccs4)cc3-c3ccccc3)C2)cc1 (centres undefined)
  cell number change: -15.5%
[2]
  AC50: 2.31 µM [rising, partial curve, poor fit]

## COc1ccccc1NC(=O)NCc1ccccc1F
  cell number change: 31.4%
[1]
  AC50: 1.46 µM [rising, full curve, poor fit]

## Cc1ccc(N2C(=O)C3C(c4ccccc4)(C2=O)C3(c2ccccc2)c2ccccc2)cc1 (centres undefined)
  cell number change: 172%
[1]
  AC50: 25.9 µM [rising, single point]
[2]
  AC50: 20.6 µM [rising, partial curve]

## N#Cc1c(NC(=O)CSc2nc(-c3ccco3)cc(C(F)(F)F)n2)sc2c1CCCC2
  cell number change: -25.1%

## Cc1ccc(-n2nc3ccc(N)cc3n2)cc1C
  cell number change: 0.587%

## C=CCNC(=O)c1ccc2c3n(nc2c1)-c1ccc(C)cc1CO3
  cell number change: 11.6%
[2]
  AC50: 0.461 µM [rising, partial curve, poor fit]

## CCN1CC=C2C(C#N)=C(N)C(C#N)(C#N)C(c3cc(Cl)ccc3Cl)C2C1 (centres undefined)
  cell number change: 4.78%
[2]
  AC50: 10.3 µM [rising, partial curve, poor fit]

## COc1ccc(CNC(=O)C2CCN(C(=O)c3cccc(Cl)c3)CC2)cc1
  cell number change: -24.3%

## COC(=O)CSc1ncccc1-c1nc2ccccc2[nH]1
[1]
  AC50: 6.51 µM [falling, single point]

## Cc1cccc(C)c1OCC(=O)Nc1cc(Cl)ccc1-n1cncn1
  cell number change: 34%
[1]
  AC50: 0.164 µM [rising, full curve, poor fit]
[2]
  AC50: 0.184 µM [rising, full curve, poor fit]

## COC(=O)c1cc(-c2ccccc2)n[nH]1
  cell number change: -25%

## CC(Oc1cccc(Cl)c1)C(=O)Nc1ccncc1 (centres undefined)
  cell number change: 9.64%
[2]
  AC50: 18.4 µM [falling, single point]

## CCSc1nnc(NC(=O)CSc2nnc(-c3c[nH]c4ccccc34)n2C)s1
[2]
  AC50: 0.146 µM [falling, full curve, poor fit]

## Cc1cc(CN2CCC(n3nccc3NC(=O)c3ccccc3C)CC2)n[nH]1
  cell number change: -28%
[1]
  AC50: 0.00461 µM [falling, full curve, poor fit]

## COc1ccc(CNC(=O)CN(Cc2ccco2)C(=O)CNS(=O)(=O)c2ccc(F)cc2)cc1
  cell number change: 2.56%

## CCOC(=O)N1CCN(C(=O)CSc2nnc(CNC(=O)c3ccccc3F)o2)CC1
  cell number change: 40.9%
[1]
  AC50: 0.00461 µM [rising, full curve, poor fit]

## O=C1C=C(Nc2ccccc2)CC(c2ccccc2)C1 (centres undefined)
  cell number change: 30.6%
[1]
  AC50: 32.6 µM [rising, single point]

## CCCC1Cc2c(sc(N)c2C#N)CO1 (centres undefined)
  cell number change: 4.96%
[2]
  AC50: 7.31 µM [falling, single point]

## C=CCn1c(SCC(=O)Nc2sccc2C(N)=O)nc2sc(C)c(C)c2c1=O
  cell number change: 8.67%
[2]
  AC50: 0.0164 µM [rising, full curve, poor fit]

## O=C(CN(c1ccccc1)S(=O)(=O)c1ccccc1[N+](=O)[O-])Nc1ccccc1C(=O)N1CCOCC1
  cell number change: -55.3%
[1]
  AC50: 6.51 µM [falling, partial curve]
[2]
  AC50: 5.8 µM [falling, full curve]

## Cc1nn(CC(=O)N2CCN(C)CC2)c(=O)c2ccccc12
  cell number change: -3.84%
[1]
  AC50: 0.206 µM [falling, partial curve]
[2]
  AC50: 0.146 µM [falling, full curve, poor fit]

## Cc1ccc(NC(=O)c2cc(S(=O)(=O)N3CCc4ccccc43)cn2C)cc1C
  cell number change: 43.8%
[1]
  AC50: 20.6 µM [rising, single point]

## O=C(O)c1ccc(N/N=C/c2ccc(OC(=O)c3cccc(Cl)c3)cc2)cc1
  cell number change: -11.8%
[2]
  AC50: 0.517 µM [falling, single point]

## COCc1cc(C)nc(Nc2ccc(C)cc2C)c1C#N
  cell number change: 173%
[1]
  AC50: 7.31 µM [rising, partial curve]
[2]
  AC50: 3.66 µM [rising, partial curve]

## CCOc1ccc(S(=O)(=O)Nc2nc3cc(OC)ccc3s2)cc1
  cell number change: 1.05%
[2]
  AC50: 6.51 µM [falling, single point]

## CCCN1C(=O)c2ccccc2NC1c1ccc(Br)cc1 (centres undefined)
  cell number change: 51.4%
[1]
  AC50: 6.51 µM [rising, full curve, poor fit]

## Cc1ccc(NS(=O)(=O)c2ccc(NC(=O)c3ccc(Br)o3)cc2)c(C)c1
  cell number change: -12.2%

## COc1ccc(-c2cc(C(=O)Nc3ccc4c(c3)OCO4)no2)cc1OC
  cell number change: -9.66%
[2]
  AC50: 29.1 µM [rising, single point]

## COc1ccccc1C(=O)N/C(=C\c1cn(C)c2ccccc12)C(=O)N1CCCC1
  cell number change: 4.96%

## CCc1nn(CC(=O)N2CCN(c3ccc(OC)cc3)CC2)c(=O)c2cc3occc3n12
[2]
  AC50: 2.91 µM [rising, partial curve]

## CCc1cc2c(=O)c(-c3nc4ccccc4n3C)coc2c(CN2CCCCC2C)c1O (centres undefined)
  cell number change: -11.1%

## NC1=NS(=O)(=O)NC1c1ccc(Br)cc1 (centres undefined)
  cell number change: -12.4%
[2]
  AC50: 0.00517 µM [falling, full curve, poor fit]

## COc1sc(SC)cc1/C=N/NC(=O)c1ccncc1
  cell number change: 6.3%
[2]
  AC50: 29.1 µM [rising, single point]

## Cc1cc(-c2nnc(CCC(=O)NC(C)c3ccc(F)cc3)o2)no1 (centres undefined)
  cell number change: 20.3%

## Cc1ccc(C(=O)O/N=C(\N)c2ccccn2)c(C)c1
  cell number change: -36.6%
[1]
  AC50: 11.6 µM [falling, partial curve, poor fit]
[2]
  AC50: 0.00517 µM [falling, full curve, poor fit]

## COc1cccc(-n2c(SCc3c(C)noc3C)nnc2-c2cccc(S(=O)(=O)N(C)C)c2)c1
  cell number change: -5.17%
[2]
  AC50: 2.06 µM [rising, single point]

## Cc1cc(C)cc(OC(=O)N2CCOCC2)c1
  cell number change: -6.27%
[2]
  AC50: 20.6 µM [rising, single point]

## CN(C(=O)COC(=O)CNC(=O)C1CCCCC1)c1ccccc1
  cell number change: -11.6%

## CC(/C=C/c1ccccc1)=N\NC(=O)Cn1nc(C)cc1C
  cell number change: -32.7%
[1]
  AC50: 23.1 µM [falling, single point]
[2]
  AC50: 29.1 µM [falling, single point]

## Cc1cccc2sc(NS(=O)(=O)c3ccccc3)nc12
  cell number change: 35.4%
[1]
  AC50: 3.66 µM [rising, partial curve, poor fit]

## CCCCn1c(=O)c(C(C)=O)c(O)c2ccccc21
  cell number change: -4.94%
[2]
  AC50: 0.651 µM [falling, full curve, poor fit]

## Cn1c(OCc2cccnc2)nc2c1c(=O)n(Cc1ccc(Br)cc1)c(=O)n2C
  cell number change: -8.91%
[2]
  AC50: 0.731 µM [falling, full curve, poor fit]

## O=[N+]([O-])c1cc(/C=N/OCc2c(Cl)cccc2Cl)ccc1N1CCOCC1
  cell number change: -146%

## Cc1ccc2nc(SCC(=O)N3CCN(c4ccccc4)CC3)nc(=O)n2c1
  cell number change: -13.8%
[2]
  AC50: 1.84 µM [falling, partial curve]

## CCCCC(=O)NC1(C(F)(F)F)C(=O)Nc2c1c(=O)[nH]c(=O)n2Cc1ccco1 (centres undefined)
  cell number change: -28.2%
[1]
  AC50: 0.92 µM [falling, full curve, poor fit]
[2]
  AC50: 23.1 µM [falling, partial curve]

## Nc1nc(SCc2nc3sc4c(c3c(=O)[nH]2)CCCC4)n[nH]1
  cell number change: 30.1%
[1]
  AC50: 6.51 µM [rising, partial curve]
[2]
  AC50: 6.51 µM [rising, single point]

## O=C(NC1CCCCCC1)c1ccc(CS(=O)(=O)Cc2ccccc2F)o1
  cell number change: -20.9%
[2]
  AC50: 0.411 µM [falling, full curve, poor fit]

## CCCc1nn2c(=O)cc(COc3ccc(NC(=O)c4ccco4)cc3)nc2s1
  cell number change: -11.6%
[2]
  AC50: 1.46 µM [rising, partial curve, poor fit]

## CCN(CC)CCN(C(=O)c1ccc2c(c1)OCCO2)c1nc2cc3c(cc2s1)OCO3
[2]
  AC50: 3.98 µM [rising, single point]

## CCc1ccccc1N(C)S(=O)(=O)c1ccc2[nH]cc(C(=O)N3CCc4ccccc43)c(=O)c2c1
  cell number change: 2.66%
[2]
  AC50: 6.51 µM [rising, partial curve, poor fit]

## CCOc1cc(C2NC(=O)N(C)C(C)=C2[N+](=O)[O-])ccc1OC(C)=O (centres undefined)
  cell number change: -17.8%

## COc1cccc(NC(=O)CN(C)C(=O)CCCc2nc3ccccc3c(=O)[nH]2)c1
  cell number change: 0.259%

## O=C(c1ccc(N2CCN(C(=O)c3ccc(F)cc3F)CC2)cc1)c1cccc(F)c1
  cell number change: -15%
[2]
  AC50: 29.1 µM [falling, single point]

## CSc1ccccc1NC(=O)c1cc2ncc(Br)cn2n1
  cell number change: 15.9%
[2]
  AC50: 1.12 µM [rising, single point]

## CCOC(=O)Cc1c(C)nc(-c2ccccc2)[nH]c1=O
  cell number change: 4.59%
[1]
  AC50: 1.3 µM [falling, partial curve]

## COc1ccc(CN(C)C(=O)c2ccc(NC(=O)CC3SC(N4CCCC4)=NC3=O)cc2)c(OC)c1 (centres undefined)
  cell number change: 22.5%

## CC(=O)Nc1ccc(NC(=O)CCn2c(=S)oc3ccccc32)cc1
[1]
  AC50: 3.26 µM [rising, partial curve]

## COc1ccc(/C=C2\C(=O)NCC(=O)N2Cc2ccccc2)cc1
  cell number change: -49%
[1]
  AC50: 16.4 µM [falling, partial curve]

## Cc1nnc(NC(=O)CSc2nc(N)c(NC(=O)c3cccs3)c(=O)[nH]2)s1
  cell number change: -0.815%
[2]
  AC50: 0.13 µM [falling, full curve, poor fit]

## O=C(c1cncc(Br)c1)N1CCc2ccccc2C1
  cell number change: 64.1%
[1]
  AC50: 11.6 µM [rising, partial curve]
[2]
  AC50: 13 µM [rising, partial curve]
